This note sets out measurements from PubChem BioAssay AID445 (National Center for Advancing Translational Sciences (NCATS), 2006).

By AC50 is commonly meant the midpoint of the concentration-response curve, whichever way the signal moves.

The other results are listed elsewhere or left out. The main result of the screen is listed elsewhere. These columns were measured beside it and carry no call. The list favours compounds with an active or inconclusive main result. The note in brackets gives the kind of curve behind each potency; many fits are weak.

This assay in a line: IkB Signaling. The conditions noted are these: ABC-DLBCL IkBa-CBG/CBR dual luciferase ratio (green luciferase fused to IkBa over red control in OCI-Ly3 lymphoma cells), 4 h; measured here: control luc red channel unless noted. In short, it runs like this:
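Curves were fitted separately to fusion (green), unfused (red) and ratio luminescence, then classed by r2, magnitude and activity. Cells: OCI-Ly3, 4 h compound plus doxycycline at 37C; 10 uM MG-132 defined full response.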
For `CSc1nn(Cc2ccc(F)cc2)c(N)c1S(=O)(=O)c1ccc(Cl)cc1`, the AC50 is 31.6 µM [falling, single point].

Take `COc1cccc(CSc2nc(-c3ccccc3OC)nc3c2Cc2c(CO)cnc(C)c2O3)c1`: the AC50 was 12.6 µM [falling, partial curve].

For `Cc1ccc(C(=O)CC2(O)C(=O)N(Cc3ccccc3)c3ccc(Br)cc32)cc1` (stereo not drawn), the AC50 was 20 µM [falling, partial curve].

For the compound `CCCCOC(=O)c1ccc(NC(=O)/C(C#N)=C/c2ccc(C)o2)cc1`, the AC50 is 0.158 µM [falling, full curve].

As for `CCc1cc2c(NCC3CCCO3)ncnc2s1` (stereo not drawn), the concentration at half-maximal activity (AC50) was 31.6 µM [falling, single point].

Consider `CCCCC(c1nnnn1CCOC)N1CCN(c2cccc(OC)c2)CC1` (stereo not drawn), for which the half-maximal activity concentration (AC50) is 25.1 µM [falling, partial curve].

For `CCC(C)n1cnc2c(c1=O)c1nc3ccccc3nc1n2Cc1ccc2c(c1)OCO2` (stereo not drawn), the AC50 is 7.94 µM [falling, single point].

Turning to `COC(=O)c1ccc(NC(=O)CN(c2cccc(C(F)(F)F)c2)S(C)(=O)=O)cc1`, the AC50 was 25.1 µM [falling, partial curve, poor fit].

Turning to `Cc1cccc(-n2c(SCC(=O)Nc3ccccc3C)nc3c(oc4ccccc43)c2=O)c1`, the AC50 is 6.31 µM [falling, partial curve].

For `COc1ccccc1NC(=O)Nc1ccc2c(c1)OCCO2`, the AC50 was 7.94 µM [falling, partial curve].

As for `CCn1cc2nc(SCc3cccc(F)c3)n(CCc3ccccc3)c(=O)c2n1`, the AC50 is 31.6 µM [falling, single point].

As to `O=C(O)CCn1ccc2cc(S(=O)(=O)N3CCCCC3)ccc21`, the AC50 was 0.01 µM [falling, full curve].

For the compound `COc1ccc(Cl)cc1NC(=O)CCCS(=O)(=O)c1nc(-c2ccc(OC)c(OC)c2)cc(C(F)(F)F)n1`, the AC50 was 6.31 µM [falling, full curve].

For `Cc1cc(C)n2c(Nc3cccc(C(F)(F)F)c3)c(-c3ccsc3)nc2n1`, the AC50 was 25.1 µM [falling, partial curve].

In the case of `Cc1ccc2oc(=O)c3cc(C(=O)Nc4cccc(C#N)c4)sc3c2c1`, the AC50 was 6.31 µM [rising, partial curve, poor fit].

Regarding `O=C(CN1CCN(c2ccc(Cl)cc2)CC1)Nc1ccc(F)c(F)c1`, the AC50 was 2 µM [falling, full curve].

Consider `Cc1cc(C)cc(-n2ccnc2SCC(=O)Nc2ccc(C)c(Cl)c2)c1`, for which the AC50 was 7.94 µM [falling, partial curve].

`COc1ccc(NC(=O)c2[nH]nc3c2CSc2ccccc2-3)c(OC)c1`: the AC50 is 10 µM [falling, partial curve].

Take `Cc1ccc(-c2n[nH]c3c2C(c2cccs2)N(c2ccc(Cl)cc2)C3=O)cc1` (stereo not drawn): the AC50 is 10 µM [falling, partial curve].

`Cc1ccc(C)c(C(=O)CSc2nc3cc(C(=O)NC4CCCC4)ccc3c(=O)n2CC2CCCO2)c1` (stereo not drawn): the AC50 was 3.16 µM [falling, full curve, poor fit].

For `Cc1cc(C)nc(N2CCC(C(=O)N3CCN(c4cc(Cl)ccc4C)CC3)CC2)n1`, the AC50 is 15.8 µM [falling, partial curve].

Take `Cc1ccc(-c2nc3cc(NC(=O)c4cc(Br)ccc4Cl)ccc3o2)cc1`: the AC50 was 10 µM [falling, partial curve].

For `CC(C)CCNC(=O)c1ccc2c(c1)N(C)C(=O)c1ccccc1S2`, the AC50 is 3.98 µM [rising, partial curve].

As to `CC1CCN(S(=O)(=O)c2cn(CC(=O)Nc3ccc(F)cc3)c(=O)c3ccccc23)CC1`, the AC50 was 12.6 µM [falling, partial curve].

Take `COc1ccc(N2CCN(Cc3nc(-c4ccc(C)cc4)no3)CC2)cc1`: the AC50 was 20 µM [falling, partial curve].

In the case of `CCOc1cc2[nH]c(=O)n(CCCCCC(=O)NC(C)CC)c(=O)c2cc1OCC` (stereo not drawn), the AC50 is 0.2 µM [falling, full curve, poor fit].

On to `COc1ccc(C2c3c(-c4ccc(F)cc4)n[nH]c3C(=O)N2c2ccccc2)cc1OC` (stereo not drawn), for which the AC50 is 20 µM [falling, partial curve].

Take `CCOc1ccc(CCNC(=O)c2cc3c(-c4ccccc4F)nn(C)c3s2)cc1OCC`: the half-maximal activity concentration (AC50) is 10 µM [falling, partial curve].

Regarding `Cc1ccccc1CNC(=O)CCSCc1cnn(-c2ccccc2)c1-n1cccc1`, the half-maximal activity concentration (AC50) was 3.16 µM [falling, single point].

In the case of `Oc1c(Cl)cc(Cl)cc1Sc1cc(Cl)cc(Cl)c1O`, the half-maximal activity concentration (AC50) was 0.631 µM [falling, full curve].

For the compound `O=C(COc1ccccc1)Nc1ccc2nc(SCC(=O)N3CCCC3)sc2c1`, the AC50 was 39.8 µM [falling, single point].

As to `Cn1c(CCN2CCCCCC2)nc2cc(NC(=O)Nc3ccccc3)ccc21`, the AC50 was 12.6 µM [falling, partial curve].

`Fc1ccc(N2CCN(c3ncnc4c3nc3n4CCCC3)CC2)cc1`: the AC50 is 39.8 µM [falling, single point].

With `CCOC(=O)N1CCN(S(=O)(=O)c2ccc(F)c(C(=O)Nc3cc(C)cc(C)c3)c2)CC1`, the AC50 is 7.94 µM [falling, partial curve].

As to `Cn1cc(S(=O)(=O)N2CCCCC2)cc1C(=O)NCc1ccc(Cl)cc1`, the AC50 is 12.6 µM [falling, partial curve].

As to `CCCCSc1nnc2c(n1)OC(c1ccc(C)s1)Nc1ccccc1-2` (stereo not drawn), the AC50 is 25.1 µM [falling, single point].

For the compound `CCCN(C(=O)c1cn(CC(C)C)c(=O)c2cc(OC)c(OC)cc12)c1cccc(C)c1`, the AC50 is 2.51 µM [falling, partial curve].

Take `Cc1cc(S(=O)(=O)Nc2ccc3[nH]c(=O)sc3c2)ccc1F`: the AC50 is 10 µM [falling, partial curve].

Turning to `Cc1ccc(S(=O)(=O)N(CC(=O)Nc2c(C)cccc2C)c2cccc(Cl)c2)cc1`, the AC50 is 20 µM [falling, single point].

Take `COc1ccc2[nH]cc(CCNc3ncncc3-c3ccc4c(c3)OCO4)c2c1`: the concentration at half-maximal activity (AC50) was 3.16 µM [falling, single point].

Turning to `COC(=O)c1cc(C)nc2c1c(=O)nc(SCc1c(C)cc(C)cc1C)n2C1CC1`, the AC50 is 31.6 µM [falling, partial curve].

Consider `CCc1ccc(NC(=O)CSc2nc3ccccc3c(=O)n2CCC(=O)NC2CCCCC2)cc1`, for which the AC50 was 7.94 µM [rising, full curve, poor fit].

Take `CCc1ccc(-c2nc(CN3CCC(C(=O)N4CCN(c5ccccc5)CC4)CC3)c(C)o2)cc1`: the concentration at half-maximal activity (AC50) is 15.8 µM [falling, partial curve].

For `CCC(=O)N1c2ccc(S(=O)(=O)N3CCCCCC3)cc2CC1C` (stereo not drawn), the AC50 is 12.6 µM [rising, partial curve].

As for `Cc1ccc(NC(=O)COc2ccc(-c3nn(C)c(=O)c4ccccc34)cc2)c(C)c1`, the AC50 was 25.1 µM [falling, single point].

For the compound `CCOc1ccc(CCNC(=O)C2CCN(Cc3nc(-c4ccccc4C)oc3C)CC2)cc1OCC`, the AC50 is 12.6 µM [falling, single point].

For `Fc1ccc(Nc2c(-c3ccco3)nc3ccccn23)cc1`, the AC50 is 10 µM [falling, partial curve].

`Cn1c(=O)c(=O)n(C)c2cc(S(=O)(=O)Nc3ccc(Cl)c(C(F)(F)F)c3)ccc21`: the AC50 was 10 µM [falling, partial curve].

`CC(C)(C)c1ccc(C(=O)N2CCN(Cc3cc(=O)n4nc(-c5ccccc5F)sc4n3)CC2)cc1`: the AC50 was 0.0251 µM [falling, full curve].

For `O=C(OCN1C(=O)c2ccccc2C1=O)c1ccc2c(=O)n3c(nc2c1)CCC3`, the AC50 is 15.8 µM [rising, partial curve].

Consider `Clc1ccc(-c2nnn3c2nc(NCc2ccc4c(c2)OCO4)c2ccccc23)cc1`, for which the AC50 was 0.2 µM [falling, full curve].

`CCc1cccc(NC(=O)CS(=O)Cc2nc(-c3ccc(C)cc3)oc2C)c1` (stereo not drawn): the half-maximal activity concentration (AC50) was 20 µM [falling, partial curve].

On to `CCCCNC(=O)CC1N=C2c3ccccc3N=C(SCC(=O)NCc3ccccc3Cl)N2C1=O` (stereo not drawn), for which the AC50 was 39.8 µM [falling, single point].

Regarding `Cc1ccc(NC(=O)CCC(=O)N2CCSc3ccccc32)cc1`, the half-maximal activity concentration (AC50) is 39.8 µM [falling, single point].

For the compound `COc1cccc(C(=O)Nc2cccc(OCc3cc(=O)n4cccc(C)c4n3)c2)c1`, the AC50 was 2 µM [falling, partial curve].

With `COC(=O)c1ccc(NC(=O)CC2C(=O)N(c3ccc(C)cc3)C(=O)N2Cc2ccc(OC)cc2)cc1` (stereo not drawn), the AC50 is 25.1 µM [falling, partial curve].

With `CCc1ccccc1Nc1cc(C(=O)NCCCN(C)C2CCCCC2)c2ccccc2n1`, the concentration at half-maximal activity (AC50) was 20 µM [falling, single point].

As for `Cc1ccc(C)c(N2CCN(C(=O)c3nn(C)c4c3CS(=O)(=O)c3ccccc3-4)CC2)c1`, the AC50 was 12.6 µM [falling, partial curve].

As to `Cc1ccn2c(Nc3ccccc3C)c(-c3cccnc3)nc2c1`, the AC50 is 39.8 µM [falling, single point].

As to `COc1cccc(C(=O)Nc2ncc3c(n2)CC(C)(C)CC3=O)c1`, the AC50 was 5.01 µM [falling, full curve].

`O=C(CCn1ccc2cc(S(=O)(=O)N3CCCC3)ccc21)NCc1ccccc1Cl`: the AC50 was 39.8 µM [falling, single point].

Take `COc1cccc(-c2nnc3sc(CN4CCCCC4)cn23)c1`: the half-maximal activity concentration (AC50) is 12.6 µM [rising, partial curve].

Take `CCC1CCCCN1C(=O)Cn1c(=O)n(CCCCCC(=O)NCc2ccccc2Cl)c(=O)c2sccc21` (stereo not drawn): the AC50 was 39.8 µM [falling, partial curve].
